In patent US20150158934A1:
These are yes or no findings as the source states them, for the method shown. Binding can be weak; no strength is given.

Tests used:
[1] = target: HIV-1 Bal envelope protein (Env) on infected human monocyte-derived macrophages (Human immunodeficiency virus 1, strain Bal); experiment: immuno-gold electron microscopy on HIV-1 Bal infected human monocyte-derived macrophages; myc-tagged J3, anti-myc 9E10, rabbit anti-mouse, protein A gold [D00016 FIG. 10B; D00017 FIG. 10C]
[2] = target: HIV-1 Bal envelope protein (Env) on infected human monocyte-derived macrophages (Human immunodeficiency virus 1, strain Bal); experiment: immunofluorescence on HIV-1 Bal infected human monocyte-derived macrophages; myc-tagged J3 detected with anti-myc 4A6 and Alexa 594 goat anti-mouse, with anti-p17 4C9 as HIV marker

B1: L8Cj3 (VHH)
VHH: EVQLVESGGGLVQAGGFLRLSCELRGSIFNQYAMAWFRQAPGKEREFVAGMGAVPHYGEFVKGRFTISRDNAKSTVYLQMSSLKPEDTAIYFCARSKSTYISYNSNGYDYWGRGTQVTVSS
For B1, the binding [1] was “binds” and the binding [2] was “binds”.
